# Record: PubChem BioAssay AID504774 (Drosophila RNAi Screening Center, 2011)
# Screen: 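Genes required for cells to withstand methyl methanesulphonate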 (primary screen)
# System: Drosophila Kc167 cells
# Reagents: long dsRNA against Drosophila genes, about 0.25 µg dsRNA per well
# Time to read-out: about 6 days: 3 days knock-down, then 3 days with or without MMS
# Conditions: methyl methanesulphonate 0.004% (w/v) for 3 days after knock-down
# Measurement: 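ATP-dependent luminescence as a measure of live cells in MMS-exposed wells, quantile normalised within each plate, with replicate values also given as a mean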
# Reading the numbers: mean viability with MMS and viability with MMS: higher = more surviving cells after MMS
# The deposit covers about 23,000 reagents; shown is a random part of those with a known target gene and a result. 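Values are quantile-normalised luminescence on an arbitrary scale; higher means more cells surviving MMS.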 A plus sign joins genes that one reagent is predicted to hit.
target gene,dsRNA,mean viability with MMS,"viability with MMS, replicate 1","viability with MMS, replicate 2"
Hmx (H6-like-homeobox),DRSC15884,3.32e6,3.83e6,3.70e6
Hmx (H6-like-homeobox),DRSC16706,3.34e6,3.59e6,3.97e6
Hmx (H6-like-homeobox),DRSC22799,3.10e6,3.61e6,3.85e6
png (pan gu),DRSC18582,3.48e6,4.02e6,3.89e6
PIG-T (Phosphatidylinositol glycan anchor biosynthesis class T),DRSC17774,3.45e6,3.92e6,3.91e6
Ir10a (Ionotropic receptor 10a),DRSC18891,3.46e6,3.97e6,3.90e6
Ir10a (Ionotropic receptor 10a),DRSC19478,3.53e6,3.97e6,4.03e6
Ir10a (Ionotropic receptor 10a),DRSC19479,3.55e6,4.00e6,4.03e6
ova (ovaries absent),DRSC02879,3.73e6,4.60e6,3.91e6
CG18537,DRSC06764,3.65e6,4.08e6,4.17e6
CG32683,DRSC17990,3.51e6,3.90e6,4.05e6
CG32683,DRSC18232,3.50e6,3.92e6,4.00e6
CG32683,DRSC18233,3.65e6,4.08e6,4.17e6
Drs (Drosomycin),DRSC08657,3.61e6,4.13e6,4.02e6
CG32454,DRSC11652,3.60e6,4.10e6,4.05e6
CG17996 + Tsen2,DRSC02650,3.44e6,3.84e6,3.97e6
p38c (p38c MAP kinase),DRSC22939,3.40e6,3.89e6,3.92e6
CG4770,DRSC15639,3.55e6,4.16e6,3.90e6
CG2182,DRSC12308,3.68e6,4.27e6,4.09e6
RpS4 (Ribosomal protein S4),DRSC11272,3.03e6,3.51e6,3.48e6
Sp212 (Serine-peptidase 212),DRSC22930,3.50e6,3.98e6,3.97e6
CG42336,DRSC05273,3.49e6,3.90e6,4.04e6
CG42336,DRSC06332,3.60e6,4.09e6,3.98e6
CG42336,DRSC06333,3.77e6,3.81e6,3.78e6
alpha-Man-Ia (alpha-Mannosidase class I a),DRSC17642,3.32e6,3.71e6,3.80e6
alpha-Man-Ia (alpha-Mannosidase class I a),DRSC18162,3.47e6,3.94e6,3.91e6
alpha-Man-Ia (alpha-Mannosidase class I a),DRSC18163,3.51e6,4.02e6,3.94e6
alpha-Man-Ia (alpha-Mannosidase class I a),DRSC18735,3.32e6,3.80e6,3.76e6
alpha-Man-Ia (alpha-Mannosidase class I a),DRSC23100,3.52e6,4.03e6,3.98e6
